## Library compounds against nucleic acid targets

Data from the ROBIN nucleic acid binder screens, doi:10.1002/anie.202211358.

Oligonucleotides screened, 5′ to 3′:
T1: TPP riboswitch RNA three-way junction, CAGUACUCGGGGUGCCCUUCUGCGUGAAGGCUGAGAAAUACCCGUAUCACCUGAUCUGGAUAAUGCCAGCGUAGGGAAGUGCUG. Hit rate about 0.7% of about 24,000 compounds.
T2: PreQ1 riboswitch RNA pseudoknot, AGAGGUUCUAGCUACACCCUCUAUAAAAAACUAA. From B. subtilis. Hit rate about 0.7% of about 24,000 compounds.
T3: SAM-II riboswitch RNA pseudoknot, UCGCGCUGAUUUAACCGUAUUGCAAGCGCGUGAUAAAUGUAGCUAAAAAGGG. Hit rate about 1% of about 21,000 compounds.

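Compounds were printed on reactive glass slides in duplicate spots, a dye-labelled oligonucleotide was laid over them, and the fluorescence left after washing was read. The data file lists only calls. An earlier report of the laboratory on the PreQ1, TPP and SAM-II riboswitches (doi:10.1038/s41467-019-09493-3) used 1 µM RNA for 2 h and required a mean Z-score above 3 (spot signal-to-noise against the whole library), a score well above that on a control array, and duplicate spots agreeing (coefficient of variation under 100); it then also set aside compounds that hit other targets, which this list keeps. The cut-offs behind this list may differ. The calls come from the array alone, and fixing a compound to the slide can hide its binding.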 “1” means called a hit, “0” means screened and not called a hit. The compounds are a random part of those screened. A dash means that no call is listed here.

Compound	T1	T2	T3
C=CCn1c(N)cc(=O)nc1SCC(=O)Nc1ccccc1	0	0	0
Cl.N=c1n(CCO)c2ccccc2n1Cc1ccc(Cl)cc1	0	0	0
CSc1nc2ncc(-c3ccccc3)c(N)n2n1	0	0	0
COc1ccc2c(CNC3CCC(C)CC3)c(C(=O)O)[nH]c2c1 (stereo not shown)	0	0	-
CCOC(=O)C1=C(C)N(CCO)C(=O)NC1c1ccccc1Br (stereo not shown)	0	0	0
CCN1C(=O)[C@H]2[C@@H](c3ccoc3)N[C@](C(=O)OC)(c3ccccc3)[C@H]2C1=O	0	0	0
O=C(CSCCO)Nc1cc(C(F)(F)F)ccc1Cl	0	0	0
CC(=O)NCCOc1ccc(-c2nc(C3CC3)nn2CCO)cc1	0	0	0
CCOc1ccc(CN2CCC(Oc3cccc(F)c3)(C(=O)O)CC2)cc1CO	0	0	1
COc1cc(CNC2CCCc3ccccc32)cc(OC)c1OC (stereo not shown)	0	0	0
OC(CN1CCN(c2cccc(Cl)c2)CC1)c1ccc2cc[nH]c2c1 (stereo not shown)	0	0	0
CC(CNCc1ccccn1)Oc1ccccn1 (stereo not shown)	0	0	0
Nc1c(C(=O)c2ccc(Br)cc2)sc2ncccc12	0	0	0
Nc1nc2c(c(NCc3ccon3)n1)CCN(C(=O)c1ccc[nH]1)CC2	0	0	0
COC(=O)c1cnn(-c2ccc(C(=O)O)cc2)c1N	0	0	-
c1ccc(-n2c(CC3CCNCC3)nnc2SCc2nccs2)cc1	0	0	0
Cc1ccc(NC(=O)CN(C)S(=O)(=O)c2cc(Br)cnc2N)cc1Cl	0	0	-
O=C(O)C1NCCc2[nH]c(-c3ccccc3F)nc21 (stereo not shown)	0	0	0
CCc1csc(CNC2CCN(c3ccc(C)cc3)CC2)n1	0	0	0
CCOc1ccc(N2C(=O)c3ccccc3C2Nc2cc(OC)cc(OC)c2)cc1 (stereo not shown)	0	0	0
Cc1cc(NC2CCCCC2)nc2ccc(N)cc12	0	0	0
COc1ccc(-c2oc3cc(OC)ccc3c2C(=O)c2ccc(C#N)cc2)cc1	0	0	0
Nc1ccc(-c2nc3ncccc3o2)cc1	0	0	0
Cn1cc(S(=O)(=O)N2CC[C@@]3(O)CCNC[C@H]3C2)c(=O)n(C)c1=O	0	0	0
COc1cc(OC)c(NC(=O)Nc2cc(C)on2)cc1Cl	0	0	0
COc1ccc2cc(-c3nc(-c4ccc(S(C)=O)cc4)[nH]c3-c3ccncc3)ccc2c1 (stereo not shown)	0	0	0
COc1ccc(Cl)cc1NC(=O)c1c(NCc2cccnc2)sc2c1CCCCC2	0	0	0
CCOP(=O)(OCC)/C(C#N)=C/c1ccc(-c2ccc(F)cc2F)o1	0	0	0
CN1CCCN(C[C@@H]2CN(C(=O)CN(C)c3ccccc3)C[C@@H]2CO)CC1	0	0	0
CCN1CCN(CCCCCCO)[C@H]2CS(=O)(=O)C[C@H]21	0	0	0
Cc1ccc2c(c1)C1(C(=O)N2)C(C#N)=C(N)N(c2ccc(C)c(Cl)c2)C2=C1C(=O)OC2 (stereo not shown)	0	0	0
Nc1nc2c(c(N3CCN(C(=O)c4cccs4)CC3)n1)CCCC2	0	0	0
Cn1cccc1-c1cc(C(=O)NCC(CO)Cc2ccsc2)[nH]n1 (stereo not shown)	0	0	0
Clc1ccc(Oc2nc3c(Cl)cccc3s2)cc1Cl	0	0	0
CN(C)CCN(CCO)C1=NS(=O)(=O)c2ccccc21	0	0	0
Cc1ccc(C(C)C)c(OCCn2c(CO)nc3ccccc32)c1	0	0	0
CC1=CC(C)(C)Nc2ccc(OC(=O)NC3CCCCC3)cc21	0	0	0
CN(C)c1ccc(-c2nc3cnccn3c2Nc2ccc3c(c2)OCO3)cc1	0	0	0
CCNC1=NS(=O)(=O)c2ccccc21	0	0	-
CN1CC(C(=O)NCc2cc3n(n2)CCCNC3)Oc2ccccc21 (stereo not shown)	0	0	0
Cn1c(=O)c2c(-c3ccc(Cl)cc3)n(-c3ccc(N)cc3)cc2n(C)c1=O	0	0	-
Cc1nnc(-c2ccc(C(=O)O)c(N)c2)o1	0	0	0
Cc1nc2sc(C(=O)Nc3ccc(Br)cc3)c(N)c2c(-c2cccs2)c1C(=O)Nc1ccccc1	0	0	0
CCC(O)c1nc2ccccc2n1CC(=O)N(C(C)C)C(C)C (stereo not shown)	0	0	-
CSCCc1nc(C2CCCNCC2)n(Cc2ccc(F)cc2)n1 (stereo not shown)	0	0	0
c1ccc2[nH]c(CCCCCc3nc4ccccc4[nH]3)nc2c1	0	0	0
CCNCC1(c2ccc(OC)c(OC)c2)CCCC1	0	0	0
Cc1ccc(-c2nn3c(NCCCN4CCOCC4)cc(C)nc3c2C)cc1	0	0	-
O=C(Nc1ccc(C(=O)O)c(O)c1)c1ccccc1	0	0	0
CCCCC(CC)COC(=O)C(C#N)=C(c1ccccc1)c1ccccc1 (stereo not shown)	0	0	0
Cn1c(-c2ccccc2Cl)nc2cc(C(=O)NCCCO)cnc21	0	0	0
Nc1c(-c2ccc(Cl)cc2)cnc2ncnn12	0	0	0
CSc1nc(Cl)c(Br)c(Nc2c[nH]c(=O)[nH]c2=O)n1	0	0	0